# Measured values taken from PubChem BioAssay AID504444 (National Center for Advancing Translational Sciences (NCATS), 2011).
# Values joined by “and” are separate entries in the source; they are usually repeats but may differ in a detail not shown here. Identical values can stand only once. Hit rate of the full screen: of about 360,000 compounds, about 7,500 (2.1%) were called active. The shares of active, inactive and inconclusive entries below differ from those in the screen. Calls come from the whole dose curve; as a rule, active = well fitted inhibition curve with a large enough effect; inconclusive = small, poorly fitted or top-dose-only effect, or effect the other way; inactive = flat fitted curve, though single readings scatter. A potency beside an inconclusive call is a rough fit, not a confirmed value.
# Experiment: Nrf2 qHTS screen for inhibitors; note: nearly all actives have a fitted effect of over 60% in size
# Conditions: A549 ARE-Fluc reporter, luciferase luminescence, 18-24 h; activity change, negative = inhibition: at 46 µM (top of the series)
# Method in brief: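 Reporter: ARE-Fluc in A549. Exposure: 18-24 h, 37 °C, 5% CO2, 5% FBS OPTI-MEM. Readouts: fluorescent cytotoxicity (CellTiter-Fluor), then luminescent Nrf2 signal after BugLite.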
# % is set by controls: 0 for no effect and ±100 for the full control effect; potency is the fitted concentration of half-maximal effect.
SMILES,Potency,"activity change, negative = inhibition"
FC(F)(F)c1nnc(-c2ccccc2)nc1Sc1ccc(Cl)cc1,"inconclusive: 18.4 µM [falling, partial curve]",
Nc1ncnc2c1ncn2C1O[C@H](CO)[C@@H](O)[C@@H]1O (some centres not stated),,inactive: 0.516%
CCc1cc(C)cc(OCCNC(=O)c2cncc(Br)c2)c1,"inconclusive: 29.1 µM [falling, single point]",
CCOC(=O)c1cccc(NC(=O)c2ccc3c(c2)nnn3C2CCCC2)c1,"inconclusive: 29.1 µM [falling, single point]",
CN(C(=O)CSc1nc(-c2ccccc2)cs1)C1CCS(=O)(=O)C1 (configuration not stated),"inconclusive: 4.11 µM [activator, full curve, poor fit]",
CC(OC(=O)CCCSc1nc2ccccc2s1)C(=O)NC(N)=O (configuration not stated),active: 16.4 µM,
Cn1nc(C(=O)OCc2ccccc2F)c2ccccc2c1=O,"inconclusive: 18.4 µM [falling, partial curve, poor fit]",
O=C(NNC(=O)C1C2CCC(C2)C1C(=O)O)c1ccc(Cl)cc1 (configuration not stated),"inconclusive: 18.4 µM [activator, partial curve]",
O=C(NCCn1cc(SCc2ccc(F)cc2)c2ccccc21)c1c(F)cccc1F,"inconclusive: 23.1 µM [falling, single point] and inconclusive: 25.9 µM [falling, single point]",
Cc1ccc(Nc2nc(N)nc(CSc3ncccn3)n2)cc1,"inconclusive: 1.64 µM [activator, full curve]",
CC1CCN(S(=O)(=O)c2cccc(C(=O)NCc3cccs3)c2)CC1,"inconclusive: 25.9 µM [falling, single point]",
COc1ccc(-c2cc(C(F)(F)F)nc(-n3cc(Br)cn3)n2)cc1,"inconclusive: 3.66 µM [falling, full curve]",
COCCn1c(SC(C)C(=O)Nc2ncc(Cl)cc2Cl)nc2ccccc21 (configuration not stated),"inconclusive: 3.26 µM [activator, full curve]",
Cn1nnnc1SCCNCc1ccccc1OCc1ccccc1F,"inconclusive: 14.6 µM [falling, partial curve]",
Cc1cc(C(=O)NCCc2ccc(Cl)cc2)c(C)o1,"inconclusive: 7.31 µM [activator, partial curve]",
O=C(CCSCc1cnn(-c2ccccc2)c1-n1cccc1)NCc1ccccc1F,"inconclusive: 20.6 µM [falling, single point]",
CCOc1ccc(NC(=O)c2cc3c(-c4ccccc4F)nn(C)c3s2)cc1,,inactive: 34%
COc1ccc(NC(=O)c2ccccc2[N+](=O)[O-])cc1,"inconclusive: 4.11 µM [activator, full curve]",
CN(C)c1ccc(N=Cc2cccn2C)cc1,"inconclusive: 5.8 µM [activator, partial curve]",
CN(C)CCCN(C(=O)c1ccc(S(=O)(=O)N(C)Cc2ccccc2)cc1)c1nc2c(F)cccc2s1,"inconclusive: 29.1 µM [falling, single point]",
O=C1NC(c2ccc(Br)cc2)Oc2ccccc21 (configuration not stated),"inconclusive: 2.31 µM [falling, full curve]",

SMILES,Potency,"activity change, negative = inhibition"
Cc1c(/C=C/C(=O)c2ccc(O)cc2)cnn1C,,inactive: 16%
COC(=O)c1ccc(COC(=O)c2ccc(SC)cc2OC)cc1,,inactive: 6.45%
Cc1ccc(NC(=O)CN(C)C(=O)c2cc3c(s2)CCCCC3)cc1,"inconclusive: 32.6 µM [falling, single point]",
COc1ccc(/C=C2/S/C(=N/S(=O)(=O)Cc3ccccc3)NC2=O)cc1OC,"inconclusive: 29.1 µM [falling, single point]",
CCn1c(SCc2nc3ccccc3s2)nnc1-c1cccs1,"inconclusive: 3.26 µM [activator, full curve, poor fit]",
CCN1CCN(c2ccc(NC(=O)COc3ccccc3Cl)cc2)CC1,"inconclusive: 3.26 µM [falling, partial curve, poor fit]",
O=C(/C=C/c1ccc(S(=O)(=O)N2CCOCC2)cc1)NCCc1ccc(C(F)(F)F)cc1,"inconclusive: 25.9 µM [falling, single point]",
Cc1nc(NC(=O)CC(C)C)sc1-c1csc(Nc2ccc(Cl)cc2)n1,"inconclusive: 16.4 µM [falling, single point]",
COc1ccc(C(C)=O)cc1CN1C(=O)NC2(CCCC2)C1=O,,inactive: 2.73%
COc1ccc([C@H]2CC(=O)C=C(/C=C/c3ccc(Cl)cc3)C2)cc1,"inconclusive: 3.26 µM [activator, full curve]",
CC(=O)c1ccc(NS(=O)(=O)c2cc(-c3cnc(C4CC4)o3)ccc2C)cc1,,inactive: -12.6%
CCc1ccc(Nc2n[n+](-c3ccccc3)c(-c3cccc(Cl)c3Cl)s2)cc1,"inconclusive: 14.6 µM [falling, single point]",
CC(=O)C1=C(C)NC(SCC(=O)c2ccc(Cl)cc2Cl)=C(C#N)C1c1ccco1 (configuration not stated),"inconclusive: 32.6 µM [falling, single point]",
CN1N=C2c3ccccc3CCC2C1c1ccc(F)cc1 (configuration not stated),"inconclusive: 16.4 µM [activator, partial curve]",
OC(COc1ccc2cc(Br)ccc2c1)Cn1ccnc1 (configuration not stated),"inconclusive: 13 µM [falling, partial curve, poor fit]",
CCCCN1CC[C@H]2C=CC[C@@H](C(=O)N3CCN(c4ccccc4)CC3)[C@H]2C1=O,,inactive: 0.167%
COc1cccc(NC(=O)N[C@@H](Cc2ccccc2)C(=O)O)c1,,inactive: -13.2%
O=C(c1ccc(S(=O)(=O)N2CCCCC2)cc1)N1CCN(CCN2C(=O)c3cccc4cccc(c34)C2=O)CC1,"inconclusive: 7.31 µM [falling, partial curve, poor fit]",
CCN1C(=O)[C@H]2[C@@H](c3ccc(-c4ccc(Cl)c(Cl)c4)c(OC)c3)N[C@@](C)(C(=O)OC)[C@H]2C1=O,,inactive: -15.7%
Cc1ccc(C2NC(=O)c3ccccc3O2)cc1 (configuration not stated),"inconclusive: 2.31 µM [falling, partial curve, poor fit]",
O=C(CCN1C(=O)/C(=C/c2ccccc2)SC1=S)N[C@@H](CO)Cc1ccccc1,"inconclusive: 23.1 µM [activator, single point]",
